Laboratory results from patent US12606834B2 (priority 2015, dated 2026).
At least one compound was matched to its structure with a doubt left.

How the values were obtained:
Klebsiella pneumoniae = experiment: CRISPR phage infection of a library of Klebsiella pneumoniae strains; assay type: cell-based
E. coli = experiment: CRISPR phage infection of a library of E. coli strains; assay type: cell-based, Escherichia coli

SMILES: NC[C@H]1O[C@H](O[C@H]2[C@H](O)[C@@H](O[C@H]3O[C@H](CO)[C@@H](O)[C@H](N)[C@H]3O)[C@H](N)C[C@@H]2N)[C@H](O)[C@@H](O)[C@@H]1O [Kan, kanamycin]
- Sensitive to Kan (Klebsiella pneumoniae; strain 9, ATCC 700603): FALSE
- Sensitive to Kan (Klebsiella pneumoniae; strain 39, ATCC 13882): TRUE
- Sensitive to Kan (Klebsiella pneumoniae; strain 188, External J1): TRUE
- Sensitive to Kan (Klebsiella pneumoniae; strain 189, External J3): TRUE
- Sensitive to Kan (Klebsiella pneumoniae; strain 190, External J4): TRUE
- Sensitive to Kan (Klebsiella pneumoniae; strain 191, External J5): TRUE
- Sensitive to Kan (Klebsiella pneumoniae; strain 192, External J7): TRUE
- Sensitive to Kan (Klebsiella pneumoniae; strain 193, External J9): TRUE
- Sensitive to Kan (Klebsiella pneumoniae; strain 194, External J18): TRUE
- Sensitive to Kan (Klebsiella pneumoniae; strain 195, External J20): TRUE
- Sensitive to Kan (Klebsiella pneumoniae; strain 196, External J27): TRUE
- Sensitive to Kan (Klebsiella pneumoniae; strain 197, External J30): TRUE
- Sensitive to Kan (Klebsiella pneumoniae; strain 198, External J33): TRUE
- Sensitive to Kan (Klebsiella pneumoniae; strain 199, External J34): TRUE
- Sensitive to Kan (Klebsiella pneumoniae; strain 200, External J37): TRUE
- Sensitive to Kan (Klebsiella pneumoniae; strain 201, External J38): TRUE
- Sensitive to Kan (Klebsiella pneumoniae; strain 202, External J47): TRUE
- Sensitive to Kan (Klebsiella pneumoniae; strain 344, MET H59476): FALSE
- Sensitive to Kan (Klebsiella pneumoniae; strain 345, MET S9604): FALSE
- Sensitive to Kan (Klebsiella pneumoniae; strain 346, MET F6199): FALSE
- Sensitive to Kan (Klebsiella pneumoniae; strain 347, MET S9391): FALSE
- Sensitive to Kan (Klebsiella pneumoniae; strain 494, ATCC 43816): TRUE
- Sensitive to Kan (Klebsiella pneumoniae; strain 519, ATCC 51503): FALSE
- Sensitive to Kan (Klebsiella pneumoniae; strain 524, ATCC 13883): TRUE
- Sensitive to Kan (Klebsiella pneumoniae; strain 548, ATCC 51504): FALSE
- Sensitive to Kan (Klebsiella pneumoniae; strain 615, ATCC 10031): TRUE
- Sensitive to Kan (E. coli; strain 4, ATCC 25922): TRUE
- Sensitive to Kan (E. coli; strain 173, External H1): TRUE
- Sensitive to Kan (E. coli; strain 174, External H2): TRUE
- Sensitive to Kan (E. coli; strain 176, External H4): TRUE
- Sensitive to Kan (E. coli; strain 177, External H5): TRUE
- Sensitive to Kan (E. coli; strain 178, External H6): TRUE
- Sensitive to Kan (E. coli; strain 180, External H8): TRUE
- Sensitive to Kan (E. coli; strain 181, External H9): TRUE
- Sensitive to Kan (E. coli; strain 182, External H10): TRUE
- Sensitive to Kan (E. coli; strain 184, External I2): FALSE
- Sensitive to Kan (E. coli; strain 185, External I3): TRUE
- Sensitive to Kan (E. coli; strain 186, External I4): FALSE
- Sensitive to Kan (E. coli; strain 187, External I5): FALSE
- Sensitive to Kan (E. coli; strain 253): TRUE
- Sensitive to Kan (E. coli; strain 260, ATCC 8739): TRUE
- Sensitive to Kan (E. coli; strain 533, ATCC 11229): TRUE
- Sensitive to Kan (E. coli; strain 571, ATCC 700928): TRUE
- Sensitive to Kan (E. coli; strain 609, ATCC 31619): TRUE
- Sensitive to Kan (E. coli; strain 610, ATCC 43890): TRUE
- Sensitive to Kan (E. coli; strain 624, ATCC BAA-1653): TRUE
- Sensitive to Kan (E. coli; strain 630, ATCC 43888): TRUE
- Sensitive to Kan (E. coli; strain 657, K-12 + casABCDE): TRUE
- Sensitive to Kan (E. coli; strain 658, K-12): TRUE
